The values that follow come from publication doi:10.1101/2024.11.08.622053.

Results are given in words; binding and its absence hold for the method and conditions named. In cells and extracts the contact can be indirect. Binding can be weak; no strength is given. Where a sequence is shown, tags or fusion partners need not be part of it.

B1: PBP1a tagged with SmBit at its C-terminus (enzyme, UniProt Q8DR59 1-719)
chain: MNKPTILRLIKYLSISFLSLVIAAIVLGGGVFFYYVSKAPSLSESKLVATTSSKIYDNKNQLIADLGSERRVNAQANDIPTDLVKAIVSIEDHRFFDHRGIDTIRILGAFLRNLQSNSLQGGSALTQQLIKLTYFSTSTSDQTISRKAQEAWLAIQLEQKATKQEILTYYINKVYMSNGNYGMQTAAQNYYGKDLNNLSLPQLALLAGMPQAPNQYDPYSHPEAAQDRRNLVLSEMKNQGYISAEQYEKAVNTPITDGLQSLKSASNYPAYMDNYLKEVINQVEEETGYNLLTTGMDVYTNVDQEAQKHLWDIYNTDEYVAYPDDELQVASTIVDVSNGKVIAQLGARHQSSNVSFGINQAVETNRDWGSTMKPITDYAPALEYGVYESTATIVHDEPYNYPGTNTPVYNWDRGYFGNITLQYALQQSRNVPAVETLNKVGLNRAKTFLNGLGIDYPSIHYSNAISSNTTESDKKYGASSEKMAAAYAAFANGGTYYKPMYIHKVVFSDGSEKEFSNVGTRAMKETTAYMMTDMMKTVLSYGTGRNAYLAWLPQAGKTGTSNYTDEEIENHIKTSQFVAPDELFAGYTRKYSMAVWTGYSNRLTPLVGNGLTVAAKVYRSMMTYLSEGSNPEDWNIPEGLYRNGEFVFKNGARSTWSSPAPQQPPSTESSSSSSDSSTSQSSSTTPSTNNSTTTNPNNNTQQSNTTPDQQNQNPQPAQP
B2: PgdA tagged with SmBit at its C-terminus (enzyme, UniProt Q8DP63 1-463)
chain: MNKSRLGRGRHGKTRHVLLALIGILAISICLLGGFIAFKIYQQKSFEQKIESLKKEKDDQLSEGNQKEHFRQGQAEVIAYYPLQGEKVISSVRELINQDVKDKLESKDNLVFYYTEQEESGLKGVVNRNVTKQIYDLVAFKIEETEKTSLGKVHLTEDGQPFTLDQLFSDASKAKEQLIKELTSFIEDKKIEQDQSEQIVKNFSDQDLSAWNFDYKDSQIILYPSPVVENLEEIALPVSAFFDVIQSSYLLEKDAALYQSYFDKKHQKVVALTFDDGPNPATTPQVLETLAKYDIKATFFVLGKNVSGNEDLVKRIKSEGHVVGNHSWSHPILSQLSLDEAKKQITDTEDVLTKVLGSSSKLMRPPYGAITDDIRNSLDLSFIMWDVDSLDWKSKNEASILTEIQHQVANGSIVLMHDIHSPTVNALPRVIEYLKNQGYTFVTIPEMLNTRLKAHELYYSRDE
B3: RodZ tagged with SmBit at its C-terminus (protein, UniProt Q8DMX7 1-276)
chain: MTSMRKKTIGEVLRLARINQGLSLDELQKKTEIQLDMLEAMEADDFDQLPSPFYTRSFLKKYAWAVELDDQIVLDAYDSGSMITYEEVDVDEDELTGRRRSSKKKKKKTSFLPLFYFILFALSILIFVTYYVWNYIQTQPEEPSLSNYSVVQSTSSTSSVPHSSSSSSSSIESAISVSGEGNHVEIAYKTSKETVKLQLAVSDVTSWVSVSESELEGGVTLSPKKKSAEATVATKSPVTITLGVVKGVDLTVDNQTVDLSKLTAQTGQITVTFTKN
B4: PBP1a tagged with SmBit at its N-terminus (enzyme, UniProt Q8DR59 1-719)
chain: MNKPTILRLIKYLSISFLSLVIAAIVLGGGVFFYYVSKAPSLSESKLVATTSSKIYDNKNQLIADLGSERRVNAQANDIPTDLVKAIVSIEDHRFFDHRGIDTIRILGAFLRNLQSNSLQGGSALTQQLIKLTYFSTSTSDQTISRKAQEAWLAIQLEQKATKQEILTYYINKVYMSNGNYGMQTAAQNYYGKDLNNLSLPQLALLAGMPQAPNQYDPYSHPEAAQDRRNLVLSEMKNQGYISAEQYEKAVNTPITDGLQSLKSASNYPAYMDNYLKEVINQVEEETGYNLLTTGMDVYTNVDQEAQKHLWDIYNTDEYVAYPDDELQVASTIVDVSNGKVIAQLGARHQSSNVSFGINQAVETNRDWGSTMKPITDYAPALEYGVYESTATIVHDEPYNYPGTNTPVYNWDRGYFGNITLQYALQQSRNVPAVETLNKVGLNRAKTFLNGLGIDYPSIHYSNAISSNTTESDKKYGASSEKMAAAYAAFANGGTYYKPMYIHKVVFSDGSEKEFSNVGTRAMKETTAYMMTDMMKTVLSYGTGRNAYLAWLPQAGKTGTSNYTDEEIENHIKTSQFVAPDELFAGYTRKYSMAVWTGYSNRLTPLVGNGLTVAAKVYRSMMTYLSEGSNPEDWNIPEGLYRNGEFVFKNGARSTWSSPAPQQPPSTESSSSSSDSSTSQSSSTTPSTNNSTTTNPNNNTQQSNTTPDQQNQNPQPAQP
B5: PgdA tagged with SmBit at its N-terminus (enzyme, UniProt Q8DP63 1-463)
chain: MNKSRLGRGRHGKTRHVLLALIGILAISICLLGGFIAFKIYQQKSFEQKIESLKKEKDDQLSEGNQKEHFRQGQAEVIAYYPLQGEKVISSVRELINQDVKDKLESKDNLVFYYTEQEESGLKGVVNRNVTKQIYDLVAFKIEETEKTSLGKVHLTEDGQPFTLDQLFSDASKAKEQLIKELTSFIEDKKIEQDQSEQIVKNFSDQDLSAWNFDYKDSQIILYPSPVVENLEEIALPVSAFFDVIQSSYLLEKDAALYQSYFDKKHQKVVALTFDDGPNPATTPQVLETLAKYDIKATFFVLGKNVSGNEDLVKRIKSEGHVVGNHSWSHPILSQLSLDEAKKQITDTEDVLTKVLGSSSKLMRPPYGAITDDIRNSLDLSFIMWDVDSLDWKSKNEASILTEIQHQVANGSIVLMHDIHSPTVNALPRVIEYLKNQGYTFVTIPEMLNTRLKAHELYYSRDE
B6: RodZ tagged with SmBit at its N-terminus (protein, UniProt Q8DMX7 1-276)
chain: MTSMRKKTIGEVLRLARINQGLSLDELQKKTEIQLDMLEAMEADDFDQLPSPFYTRSFLKKYAWAVELDDQIVLDAYDSGSMITYEEVDVDEDELTGRRRSSKKKKKKTSFLPLFYFILFALSILIFVTYYVWNYIQTQPEEPSLSNYSVVQSTSSTSSVPHSSSSSSSSIESAISVSGEGNHVEIAYKTSKETVKLQLAVSDVTSWVSVSESELEGGVTLSPKKKSAEATVATKSPVTITLGVVKGVDLTVDNQTVDLSKLTAQTGQITVTFTKN

Substrate in the first experiment: S protein tagged with LgBit at its C-terminus (S. pneumoniae)
Nature of the experiment: split reporter.
In the case of B1, the binding result is “binds”.

For B2, the binding result is “binds”.

Consider B3, for which the binding entry is on record as “binds”.

Substrate in a further experiment: S protein tagged with LgBit at its N-terminus (S. pneumoniae)
Put plainly: split reporter.
For the molecule B4, the binding result is reported as “binds”.

Regarding B5, the binding entry is listed as “binds”.

B6: the binding result is recorded as “binds”.
